Laboratory results: patent publication US20250263370A1 (Tay Therapeutics Limited, priority 2022, published 2025)
Several values for one entry are separate records, joined by “and”; a condition that tells them apart may be missing. Equal entries are not always repeated. Further values from the same series stand in other lists.

Tested on: collagen-induced arthritis
Test: Collagen-induced arthritis (CIA) model in rats: body weight, paw volume, clinical scores, clinical observations; as to Detailed Clinical Scores: left forelimb: key of the grades not given here; as to Detailed Clinical Scores: left hind limb: key of the grades not given here; as to Detailed Clinical Scores: right forelimb: key of the grades not given here; as to Detailed Clinical Scores: right hind limb: key of the grades not given here; as to Detailed Clinical Scores: score: key of the grades not given here; as to Overall clinical score: key of the grades not given here
Conditions: for Animal paw volume percent change: individual animals; for Overall clinical score / Detailed Clinical Scores: left forelimb / Detailed Clinical Scores: right forelimb / Detailed Clinical Scores: score / Detailed Clinical Scores: left hind limb / Detailed Clinical Scores: right hind limb: CIA rats; for Overall clinical score: individual animals #1-8; for Detailed Clinical Scores: left forelimb / Detailed Clinical Scores: right forelimb / Detailed Clinical Scores: score / Detailed Clinical Scores: left hind limb / Detailed Clinical Scores: right hind limb: individual animals ID 1-8

CNC(=O)c1[nH]c(C(=O)NC2CCC2)cc1O[C@@H](C)c1ccccc1 (stereo in doubt) [Example 101, N^5-cyclobutyl-N^2-methyl-3-(1-phenylethoxy)-1H-pyrrole-2,5-dicarboxamide]
Animal paw volume percent change (Day 15, R paw, 3 mg/kg): 18.91% | Animal paw volume percent change (Day 15, R paw, 10 mg/kg): 10.26% and 20.72% | Animal paw volume percent change (Day 15, R paw, 30 mg/kg): 13.86% and 4.98% and 28.35% and 3.66% and 14.23% and 3.42% and 31.56% and −3.00% | Overall clinical score (Day 15, 10 mg/kg): 6 and 0 and 1 (2×) and 2 | Overall clinical score (Day 15, 30 mg/kg): 1 and 2 (3×) and 0 (4×) | Animal paw volume percent change (Day 18, L paw, 3 mg/kg): 63.47% | Animal paw volume percent change (Day 18, L paw, 10 mg/kg): 20.15% and 19.44% | Animal paw volume percent change (Day 18, L paw, 30 mg/kg): 9.81% and 55.51% and 43.02% and 11.41% (2×) and 28.24% and 48.65% and 26.97% | Animal paw volume percent change (Day 18, R paw, 3 mg/kg): 96.73% | Animal paw volume percent change (Day 18, R paw, 10 mg/kg): 15.38% and 19.92% | Animal paw volume percent change (Day 18, R paw, 30 mg/kg): 12.73% and 42.91% and 42.53% and 2.90% and 13.46% and 0.00% and 48.29% and 25.47% | Detailed Clinical Scores: left forelimb (Day 18, 3 mg/kg): 4 | Detailed Clinical Scores: right forelimb (Day 18, 3 mg/kg): 4 | Detailed Clinical Scores: score (Day 18, 3 mg/kg): 8 (4×) and 12 (2×) | Detailed Clinical Scores: left forelimb (Day 18, 10 mg/kg): 0 | Detailed Clinical Scores: left hind limb (Day 18, 10 mg/kg): 4 (4×) and 3 and 0 (2×) and 1 | Detailed Clinical Scores: right forelimb (Day 18, 10 mg/kg): 0 (6×) and 4 and 3 | Detailed Clinical Scores: right hind limb (Day 18, 10 mg/kg): 3 (2×) and 4 (2×) and 1 (2×) and 2 and 0 | Detailed Clinical Scores: score (Day 18, 10 mg/kg): 7 and 6 (2×) and 12 and 11 and 1 and 2 and 0 | Detailed Clinical Scores: left forelimb (Day 18, 30 mg/kg): 0 | Detailed Clinical Scores: left hind limb (Day 18, 30 mg/kg): 0 (3×) and 3 and 2 (2×) and 1 (2×) | Detailed Clinical Scores: right forelimb (Day 18, 30 mg/kg): 0 | Detailed Clinical Scores: right hind limb (Day 18, 30 mg/kg): 0 (4×) and 2 (3×) and 1 | Detailed Clinical Scores: score (Day 18, 30 mg/kg): 0 (3×) and 5 and 4 (2×) and 1 and 2 | Overall clinical score (Day 18, 10 mg/kg): 11 and 1 and 2 and 0 | Overall clinical score (Day 18, 30 mg/kg): 0 (3×) and 5 and 4 (2×) and 1 and 2 | Animal paw volume percent change (Day 19, L paw, 3 mg/kg): 105.54% | Animal paw volume percent change (Day 19, L paw, 10 mg/kg): 78.08% and 20.51% and 26.59% | Animal paw volume percent change (Day 19, L paw, 30 mg/kg): 6.79% and 55.13% and 55.09% and 18.25% and 17.49% and 41.22% and 49.42% and 24.72% | Animal paw volume percent change (Day 19, R paw, 3 mg/kg): 100.36% | Animal paw volume percent change (Day 19, R paw, 10 mg/kg): 42.91% and 14.65% and 23.90% | Animal paw volume percent change (Day 19, R paw, 30 mg/kg): 7.49% and 49.81% and 63.60% and 4.41% and 13.46% and 38.78% and 55.13% and 26.22% | Detailed Clinical Scores: left forelimb (Day 19, 3 mg/kg): 4 | Detailed Clinical Scores: right forelimb (Day 19, 3 mg/kg): 4 | Detailed Clinical Scores: score (Day 19, 3 mg/kg): 8 (2×) and 16 and 12 (2×) | Detailed Clinical Scores: left forelimb (Day 19, 10 mg/kg): 0 | Detailed Clinical Scores: left hind limb (Day 19, 10 mg/kg): 3 (3×) and 4 (2×) and 0 and 1 (2×) | Detailed Clinical Scores: right forelimb (Day 19, 10 mg/kg): 1 (2×) and 0 (4×) and 4 and 3 | Detailed Clinical Scores: right hind limb (Day 19, 10 mg/kg): 3 (3×) and 4 (2×) and 2 (3×) | Detailed Clinical Scores: score (Day 19, 10 mg/kg): 7 (2×) and 6 and 12 and 11 and 2 and 3 (2×) | Detailed Clinical Scores: left forelimb (Day 19, 30 mg/kg): 0 | Detailed Clinical Scores: left hind limb (Day 19, 30 mg/kg): 0 and 3 (2×) and 1 (3×) and 2 (2×) | Detailed Clinical Scores: right forelimb (Day 19, 30 mg/kg): 0 (6×) and 1 (2×) | Detailed Clinical Scores: right hind limb (Day 19, 30 mg/kg): 0 (3×) and 3 (4×) and 2 | Detailed Clinical Scores: score (Day 19, 30 mg/kg): 0 and 6 (2×) and 7 and 1 (2×) and 5 and 3 | Overall clinical score (Day 19, 10 mg/kg): 11 and 2 and 3 (2×) | Overall clinical score (Day 19, 30 mg/kg): 0 and 6 (2×) and 7 and 1 (2×) and 5 and 3 | Animal paw volume percent change (Day 21, L paw, 3 mg/kg): 111.44% | Animal paw volume percent change (Day 21, L paw, 10 mg/kg): 78.85% and 33.70% and 26.59% | Animal paw volume percent change (Day 21, L paw, 30 mg/kg): 7.55% and 57.79% and 58.87% and 16.73% (2×) and 56.87% and 64.09% and 24.72% | Animal paw volume percent change (Day 21, R paw, 3 mg/kg): 101.09% | Animal paw volume percent change (Day 21, R paw, 10 mg/kg): 64.75% and 32.97% and 28.69% | Animal paw volume percent change (Day 21, R paw, 30 mg/kg): 6.74% and 60.54% and 65.13% and 5.16% and 12.69% and 52.09% and 61.22% and 25.09% | Detailed Clinical Scores: left forelimb (Day 21, 3 mg/kg): 1 and 0 (5×) and 3 and 4 | Detailed Clinical Scores: left hind limb (Day 21, 3 mg/kg): 4 | Detailed Clinical Scores: right forelimb (Day 21, 3 mg/kg): 0 (5×) and 3 and 1 and 4 | Detailed Clinical Scores: right hind limb (Day 21, 3 mg/kg): 4 (6×) and 3 (2×) | Detailed Clinical Scores: score (Day 21, 3 mg/kg): 9 and 7 (2×) and 8 (2×) and 14 and 13 and 12 | Detailed Clinical Scores: left forelimb (Day 21, 10 mg/kg): 0 | Detailed Clinical Scores: left hind limb (Day 21, 10 mg/kg): 3 (3×) and 4 (2×) and 0 and 2 and 1 | Detailed Clinical Scores: right forelimb (Day 21, 10 mg/kg): 1 (2×) and 0 (4×) and 4 (2×) | Detailed Clinical Scores: right hind limb (Day 21, 10 mg/kg): 3 (3×) and 4 (2×) and 2 (2×) and 1 | Detailed Clinical Scores: score (Day 21, 10 mg/kg): 7 (2×) and 6 and 12 (2×) and 2 (2×) and 4 | Detailed Clinical Scores: left forelimb (Day 21, 30 mg/kg): 0 | Detailed Clinical Scores: left hind limb (Day 21, 30 mg/kg): 0 and 3 (4×) and 1 (3×) | Detailed Clinical Scores: right forelimb (Day 21, 30 mg/kg): 0 (7×) and 1 | Detailed Clinical Scores: right hind limb (Day 21, 30 mg/kg): 0 (3×) and 3 (4×) and 1 | Detailed Clinical Scores: score (Day 21, 30 mg/kg): 0 and 6 (3×) and 7 and 1 (2×) and 2 | Overall clinical score (Day 21, 10 mg/kg): 2 (2×) and 4 | Overall clinical score (Day 21, 30 mg/kg): 0 and 6 (3×) and 7 and 1 (2×) and 2
